These are yes or no findings as the source states them, for the method shown. A result given as binding can be weak or reduced; the word gives no strength.
T1: Simplagrin (Simulium platelet aggregation inhibitor), recombinant (Simulium nigrimanum) (UniProt D1FQ14)
T1 sequence: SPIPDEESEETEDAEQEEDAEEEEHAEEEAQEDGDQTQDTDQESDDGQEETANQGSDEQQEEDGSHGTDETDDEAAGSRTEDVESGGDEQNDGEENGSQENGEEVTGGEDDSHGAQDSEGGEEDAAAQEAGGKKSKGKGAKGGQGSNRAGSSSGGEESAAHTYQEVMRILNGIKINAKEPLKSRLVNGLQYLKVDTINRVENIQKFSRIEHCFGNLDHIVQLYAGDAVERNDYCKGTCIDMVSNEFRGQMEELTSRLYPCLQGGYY

B1: Simplagrin (Simulium platelet aggregation inhibitor), recombinant (natural protein, Simulium nigrimanum, UniProt D1FQ14 21-286, looked up)
chain: SPIPDEESEETEDAEQEEDAEEEEHAEEEAQEDGDQTQDTDQESDDGQEETANQGSDEQQEEDGSHGTDETDDEAAGSRTEDVESGGDEQNDGEENGSQENGEEVTGGEDDSHGAQDSEGGEEDAAAQEAGGKKSKGKGAKGGQGSNRAGSSSGGEESAAHTYQEVMRILNGIKINAKEPLKSRLVNGLQYLKVDTINRVENIQKFSRIEHCFGNLDHIVQLYAGDAVERNDYCKGTCIDMVSNEFRGQMEELTSRLYPCLQGGYY
notes: Simplagrin (cluster Sim-50), salivary gland protein of Simulium nigrimanum; precursor of 286 aa with a predicted signal peptide of 20 aa; the construct holds the mature protein and a 6X-His tag before the stop codon; Synthetic codon optimised gene in the VR2001 TOPO vector; also called Sim-50; recombinant Simplagrin; source: FreeStyle293 F (HEK293) cells, transfected, secreted; purified (Ni2+ …)

Tests used:
[1] = target: T1, Simplagrin (Simulium platelet aggregation inhibitor), recombinant (Simulium nigrimanum); test: SPR; initial screening: Simplagrin immobilised on a CM5 chip, analytes injected for 120 s at 20 µL/min, dissociation 400 s; HBS-P (10 mM Hepes pH 7.4, 150 mM NaCl, 0.005% P20); both purified
[2] = target: Soluble human collagen type IV (human); test: ELISA; solid phase: collagens (25 µg/mL in PBS pH 7.4) coated overnight at 4°C, Simplagrin 0-3 µM in PBS-T for two hours, detected with anti-Simplagrin antibodies; both purified
[3] = target: Soluble human collagen type V (human); test: as above

Molecule | binding [1] | binding [2] | binding [3]
Soluble human collagen type IV | binds |  | 
Soluble human collagen type V | binds |  | 
Soluble human collagen type VI | binds |  | 
B1 |  | binds | binds

Reference: article PMC4055580, “Simplagrin, a Platelet Aggregation Inhibitor from Simulium nigrimanum Salivary Glands Specifically Binds to the Von Willebrand Factor Receptor in Collagen and Inhibits Carotid Thrombus Formation In Vivo” (PLoS Neglected Tropical Diseases, 2014)
